The text below walks through data of paper PMC6051995.

By UniProt entry, the sequences of proteins in these tests, tags left out.
UniProt O75530: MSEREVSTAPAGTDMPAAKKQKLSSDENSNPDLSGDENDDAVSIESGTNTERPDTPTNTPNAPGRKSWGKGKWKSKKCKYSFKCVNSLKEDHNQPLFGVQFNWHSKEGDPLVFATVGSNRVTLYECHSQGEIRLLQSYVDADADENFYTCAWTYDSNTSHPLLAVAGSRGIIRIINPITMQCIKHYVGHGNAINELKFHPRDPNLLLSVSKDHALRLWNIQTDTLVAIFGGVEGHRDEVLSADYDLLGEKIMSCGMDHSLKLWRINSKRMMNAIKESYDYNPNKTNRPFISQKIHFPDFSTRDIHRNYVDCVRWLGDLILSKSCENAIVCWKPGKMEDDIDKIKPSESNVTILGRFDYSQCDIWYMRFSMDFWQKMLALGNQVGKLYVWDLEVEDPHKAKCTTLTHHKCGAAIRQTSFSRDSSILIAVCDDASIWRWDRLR
UniProt Q15022: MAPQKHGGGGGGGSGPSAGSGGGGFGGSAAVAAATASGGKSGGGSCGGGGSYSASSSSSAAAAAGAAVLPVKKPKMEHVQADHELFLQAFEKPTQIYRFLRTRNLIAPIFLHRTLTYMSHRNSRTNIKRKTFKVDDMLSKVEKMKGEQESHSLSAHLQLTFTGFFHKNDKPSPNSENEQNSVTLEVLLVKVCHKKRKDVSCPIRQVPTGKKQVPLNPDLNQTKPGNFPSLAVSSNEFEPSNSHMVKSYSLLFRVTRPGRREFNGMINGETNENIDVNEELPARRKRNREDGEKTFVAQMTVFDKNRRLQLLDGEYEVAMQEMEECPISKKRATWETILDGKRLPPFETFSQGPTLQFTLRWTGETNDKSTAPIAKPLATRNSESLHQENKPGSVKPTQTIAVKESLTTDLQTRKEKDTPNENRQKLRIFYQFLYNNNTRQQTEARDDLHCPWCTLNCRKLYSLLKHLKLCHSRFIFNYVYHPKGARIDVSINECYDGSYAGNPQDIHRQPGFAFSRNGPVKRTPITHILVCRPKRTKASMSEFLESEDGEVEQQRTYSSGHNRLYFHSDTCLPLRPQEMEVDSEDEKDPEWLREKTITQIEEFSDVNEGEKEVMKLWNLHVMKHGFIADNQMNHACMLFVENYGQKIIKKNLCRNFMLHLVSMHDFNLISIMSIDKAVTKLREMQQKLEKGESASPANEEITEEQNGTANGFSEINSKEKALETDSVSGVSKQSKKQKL
UniProt Q15910: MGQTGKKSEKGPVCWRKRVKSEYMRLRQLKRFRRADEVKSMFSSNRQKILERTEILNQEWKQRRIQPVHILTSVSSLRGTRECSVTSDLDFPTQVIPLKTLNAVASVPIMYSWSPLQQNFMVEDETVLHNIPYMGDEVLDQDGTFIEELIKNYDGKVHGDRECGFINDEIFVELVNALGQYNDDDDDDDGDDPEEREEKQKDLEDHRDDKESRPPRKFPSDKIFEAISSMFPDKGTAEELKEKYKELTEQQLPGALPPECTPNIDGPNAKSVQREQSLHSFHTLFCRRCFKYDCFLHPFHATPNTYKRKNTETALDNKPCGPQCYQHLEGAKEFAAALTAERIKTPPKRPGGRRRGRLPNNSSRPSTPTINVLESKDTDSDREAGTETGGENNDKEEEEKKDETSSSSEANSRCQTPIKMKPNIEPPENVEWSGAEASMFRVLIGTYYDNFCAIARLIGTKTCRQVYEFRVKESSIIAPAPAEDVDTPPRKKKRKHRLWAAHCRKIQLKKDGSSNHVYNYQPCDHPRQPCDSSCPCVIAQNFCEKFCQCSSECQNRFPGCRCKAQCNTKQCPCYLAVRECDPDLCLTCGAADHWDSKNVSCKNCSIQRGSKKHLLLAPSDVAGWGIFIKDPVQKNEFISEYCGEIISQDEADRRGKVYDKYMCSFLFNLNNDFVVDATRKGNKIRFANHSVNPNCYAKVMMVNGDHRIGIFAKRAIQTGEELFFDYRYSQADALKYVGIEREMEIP

These are yes or no findings as the source states them, for the method shown. In cells and extracts the contact can be indirect. For part of these data: A result given as binding can be weak or reduced; the word gives no strength.

For assay [1], the target named is EED (human (endogenous in MDA-MB-231)) (UniProt O75530). The assay can be described thus: co-IP + proximity ligation; endogenous proteins in breast cancer cells (Supplementary Fig. 6E); the sentence names both methods and does not tell which showed the lack of interaction.
Assay [2] addresses SUZ12 (human (endogenous in MDA-MB-231)) (UniProt Q15022). The description is as above.
Assay [3] addresses pEZH2(T367) (endogenous EZH2 phosphorylated at T367) (human (endogenous in MDA-MB-231)) (UniProt Q15910). The assay can be described thus: proximity ligation; fixed breast cancer cells (MDA-MB-231); DuoLink PLA probes; confocal imaging.

For the substance “vinculin (endogenous) (from UniProt P18206-2)”, the binding entry in assay [1] was “no binding”; in assay [2], “no binding”; in assay [3], “binds”.
